# Test results: article PMC11371170
# Results are given in words; binding and its absence hold for the method and conditions named.
# T1: VASCULAR-RELATED NAC-DOMAIN7 (Arabidopsis thaliana) (UniProt Q9C8W9)
# T1 sequence: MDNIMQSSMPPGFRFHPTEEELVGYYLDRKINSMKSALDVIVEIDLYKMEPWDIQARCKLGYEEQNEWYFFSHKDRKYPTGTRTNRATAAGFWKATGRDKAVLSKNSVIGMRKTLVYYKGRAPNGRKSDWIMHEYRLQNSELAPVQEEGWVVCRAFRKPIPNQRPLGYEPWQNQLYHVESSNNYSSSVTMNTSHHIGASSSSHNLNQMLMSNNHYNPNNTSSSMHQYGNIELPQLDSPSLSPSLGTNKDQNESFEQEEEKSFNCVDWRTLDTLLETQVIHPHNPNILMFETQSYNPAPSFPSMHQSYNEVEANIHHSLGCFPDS
# B1: uncharacterized F-BOX protein (FBX) (protein, UniProt Q9FL82 1-252)
# chain: MFSEEVLKNVFPLLEGEDLASCMGVCKQWRDIARDDFYWKCQCAKKWPSVCKRHKPPTETYYKMYQTFSKRRLNRALPPPRLSFENLEFFIDIWSEERLVFSGLIPGVALENGIETLPLGISNVLRTHLGRPDYKMVVPAEPRFTIPLNQSVSVSVLVARNDSDKVARIINRSVFDYIDRSSYRALAFEYLDLSPCYPFISGIRAWISLLFMDVEDMNDDGLLDVFGIQLDFNDVADTKEEVLWLLDMLDWK
# B2: PLANT U-BOX36 (enzyme, UniProt Q8GZ84 1-435)
# chain: MTLKIPIQEMVKMVGSLRSHGIDIPESMEINKKEKIYVAVTEKDLESKSSLVWAIQNSGGKEFCIVHVHQPIPGEMFHEQKLRLYRKEKDKAHKNSEKYLQICRQMQVTAEIIYIETDSVEKGILQLISQRGVTKLVMGAAADRHYSMRMRDLKSKKAIYIHREAPATCLIWFTCNGYLICSREARRANNLYLECASSNSLSQSDITRGTESIVKDDDHLIKLAVTEAEASKRKARFEACKREEAEKTAVDALKKAKQWENVYFEELKQRKETEKALRKRNDELEKMRSESETQITESYTVIRKLQEKNNLSMETFRGIREEQEELKIKLREVSKLKGKREEEEASTSNHREPPQYFICPITHDIMEDPHVAADGFTYEGEAISRWFERGHETSPMINKRLPHTSLVPNLALRSAIQEWLQLRELLNRPSACREI
# B3: PLANT U-BOX46 (enzyme, UniProt Q3E9F7 1-458)
# chain: MADSTETNADTLRRELQKVLTEILNDGGGNDRDETEAFSGVVKAIDEAVRILTCLRKVESKIPESDISPVEVPKEFICTLSNTIMIEPVIIASGQTYEKRYITEWLKHERTCPKTKQVLSHRLWIPNHLISDLITQWCLVNKYDHQKPSDELVAELFTSDIEALLQRVSSSSSVADQIEAAKELRHQTKKFPNVRVFFVAGIHDSITRLLSPLSTLDEAVDSSLELQENIVTALFNLSILESNKTVIAENCLVIPLLTKSLKQGTDETRRNAAATLSSLSAIDSNKIIIGNSEAVKALIDLIEEGDLLATKEATSTVFNLCIVLENKGKVVSAGLIHAATKKIKAGSNVDELLSLLALISTHNRAVEEMDKLGFIYDLFSILRKPSSLLTGENAVVIVFNMYDRNRDRSRLKVVGEEENQHGTFTKLAKQGSVRAARKAQGILQWIKRFVTGKEPQRA
# B4: UBIQUITIN-SPECIFIC PROTEASE1 (enzyme, UniProt Q9FPT5 1-1083)
# chain: MRFAATVSEKQSEQSVEVTEEFAVTMTEKRSCVHFDKYVDLDKLLKIIKSYQQIKCGECNERVHVKRGSRWGASNRRDWYSSSDQNCARNAIWLCLECGYYVCGDVGLPTEAQSHVMGHNRLTRHRLVIQCKNPQLRWCFSCQSLLPFDNEENGEKKDLLLEVVKLIRERSPNTYSASFETEFSCSGSIYGGIEARDGYAVRGLVNLGNTCFFNSVMQNLLSLDQLREHFLKEDLSVSGPLVSSLKELFAESNSEASVFRNEINPRDLFFSVCSQAPQFRGYQQHDSHELLRCLLDGLSIEESSLRKKLGVSDSNDSSTYQKPTLIDSVFGGEISSTVSCLECGHFSKVYEPFMDLSLPVPSMKLPPKKQQILSQAKEVLKNGAVSKDSEVVSAKPASDHNSTVPLFPSDHKIQSRPETSDNETDLVLLSDVSDTAPSTEAKGVNQILVGSTETLMHDNDRTGKTVPDKEDVRATQSNEETSASGISAVIDEAQVCGCPDLEQSSSSANQGADEELALMVADSQVLYMPYKDHLFYDDYMVAEASSSFVSGDHEPKKDYFDFSSFLDEPEIREGPVFRPLSKSEVYEAGFKADCSDDKTVSAGKGEASSSFISSDHEQNIDYVDFSSFFDEPEISERPFFRPLSKSEVSEAGFKADCSDDKTVSAGKGEASSSFVSSDHEQNIDYVDFSSFFDEPEISERPFFRPLSKSEVSEAGFMAVSGNDKTVRAGKGETFSSFMSGDNERNIDYVEFTNRIFDDRGTSERPVFGPPSKAKVSEAGFVAVSSDSDPAVLDESDSPVSVDRCLAQFTKHEILSEDNAWHCENCSKNLKLQRLREKRRTKEGLSNRWVNENGASSAFDECRDSSLNQSCIDLENGYKAAPPITKLPNCKEEESAIDDGFVGEENTKQAPITSVTETPLLGGETISSQPASDNECENWEDLAVDSEEVIVKRDARKKVLINKAPPVLTIHLKRFSQDARGRVSKLSGHVDFQEFIDLSKYMDTRCSEEDEPVYRLAGLVEHLGAMSRGHYVSYIRGGHKERRDSDTKEPNSSIWYHASDSQVRPASLEEVLRSEAYILFYERI
# Target: T1, VASCULAR-RELATED NAC-DOMAIN7 (Arabidopsis thaliana)
# Test: two-hybrid; Gal4 system, pAD-GAL4-GWRFC and pBD-GAL4-GWRFC fusions in S. cerevisiae AH109; growth at 30 °C on minimal SD medium lacking tryptophan and leucine, or tryptophan, leucine and histidine; repeated 3 times
row,binding,Binder
1,no binding,B1
2,no binding,B2
3,no binding,B3
4,no binding,B4
